In paper PMC8565353 one finds binding data, which are given here for ten molecules.

Protein sequences, listed by entry. Tags and fused reporters are not part of them.
UniProt Q6P6C2: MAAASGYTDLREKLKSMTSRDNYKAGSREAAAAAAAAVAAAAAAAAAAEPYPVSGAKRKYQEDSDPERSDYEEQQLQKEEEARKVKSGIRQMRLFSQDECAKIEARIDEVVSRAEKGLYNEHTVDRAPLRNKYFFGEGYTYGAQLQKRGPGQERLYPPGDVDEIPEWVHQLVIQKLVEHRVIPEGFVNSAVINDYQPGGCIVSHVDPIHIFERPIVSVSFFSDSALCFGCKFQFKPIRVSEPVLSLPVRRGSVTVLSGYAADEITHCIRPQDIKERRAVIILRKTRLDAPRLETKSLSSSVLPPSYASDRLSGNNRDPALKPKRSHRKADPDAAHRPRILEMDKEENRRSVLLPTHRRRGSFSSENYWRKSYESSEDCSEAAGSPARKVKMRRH

Results are given in words; binding and its absence hold for the method and conditions named. Binding seen in cells or lysates may run through a third protein. These calls come from enrichment with a bait or labelling near it, and not all partners need be listed. For some of these results: A no says only that the protein was not detected with the bait.

First the molecules themselves.
B1: Tyrosyl DNA phosphodiesterase 2 (TDP2) (enzyme, UniProt O95551 1-362)
chain: MELGSCLEGGREAAEEEGEPEVKKRRLLCVEFASVASCDAAVAQCFLAENDWEMERALNSYFEPPVEESALERRPETISEPKTYVDLTNEETTDSTTSKISPSEDTQQENGSMFSLITWNIDGLDLNNLSERARGVCSYLALYSPDVIFLQEVIPPYYSYLKKRSSNYEIITGHEEGYFTAIMLKKSRVKLKSQEIIPFPSTKMMRNLLCVHVNVSGNELCLMTSHLESTRGHAAERMNQLKMVLKKMQEAPESATVIFAGDTNLRDREVTRCGGLPNNIVDVWEFLGKPKHCQYTWDTQMNSNLGITAACKLRFDRIFFRAAAEEGHIIPRSLDLLGLEKLDCGRFPSDHWGLLCNLDIIL
B2: E3 ubiquitin-protein ligase RNF8 (enzyme, UniProt O76064 1-485)
chain: MGEPGFFVTGDRAGGRSWCLRRVGMSAGWLLLEDGCEVTVGRGFGVTYQLVSKICPLMISRNHCVLKQNPEGQWTIMDNKSLNGVWLNRARLEPLRVYSIHQGDYIQLGVPLENKENAEYEYEVTEEDWETIYPCLSPKNDQMIEKNKELRTKRKFSLDELAGPGAEGPSNLKSKINKVSCESGQPVKSQGKGEVASTPSDNLDPKLTALEPSKTTGAPIYPGFPKVTEVHHEQKASNSSASQRSLQMFKVTMSRILRLKIQMQEKHEAVMNVKKQTQKGNSKKVVQMEQELQDLQSQLCAEQAQQQARVEQLEKTFQEEEQHLQGLEIAQGEKDLKQQLAQALQEHWALMEELNRSKKDFEAIIQAKNKELEQTKEEKEKMQAQKEEVLSHMNDVLENELQCIICSEYFIEAVTLNCAHSFCSYCINEWMKRKIECPICRKDIKSKTYSLVLDNCINKMVNNLSSEVKERRIVLIRERKAKRLF
B3: tRNA m^1G methyltransferase TRMT10A (enzyme, UniProt Q8TBZ6 1-339)
chain: MSSEMLPAFIETSNVDKKQGINEDQEESQKPRLGEGCEPISKRQMKKLIKQKQWEEQRELRKQKRKEKRKRKKLERQCQMEPNSDGHDRKRVRRDVVHSTLRLIIDCSFDHLMVLKDIKKLHKQIQRCYAENRRALHPVQFYLTSHGGQLKKNMDENDKGWVNWKDIHIKPEHYSELIKKEDLIYLTSDSPNILKELDESKAYVIGGLVDHNHHKGLTYKQASDYGINHAQLPLGNFVKMNSRKVLAVNHVFEIILEYLETRDWQEAFFTILPQRKGAVPTDKACESASHDNQSVRMEEGGSDSDSSEEEYSRNELDSPHEEKQDKENHTESTVNSLPH
B4: guanine dimethyltransferase TRM1 (enzyme, UniProt Q9NXH9 24-659)
chain: FEWQSPGLPNTAAMENGTGPYGEERPREVQETTVTEGAAKIAFPSANEVFYNPVQEFNRDLTCAVITEFARIQLGAKGIQIKVPGEKDTQKVVVDLSEQEEEKVELKESENLASGDQPRTAAVGEICEEGLHVLEGLAASGLRSIRFALEVPGLRSVVANDASTRAVDLIRRNVQLNDVAHLVQPSQADARMLMYQHQRVSERFDVIDLDPYGSPATFLDAAVQAVSEGGLLCVTCTDMAVLAGNSGETCYSKYGAMALKSRACHEMALRIVLHSLDLRANCYQRFVVPLLSISADFYVRVFVRVFTGQAKVKASASKQALVFQCVGCGAFHLQRLGKASGVPSGRAKFSAACGPPVTPECEHCGQRHQLGGPMWAEPIHDLDFVGRVLEAVSANPGRFHTSERIRGVLSVITEELPDVPLYYTLDQLSSTIHCNTPSLLQLRSALLHADFRVSLSHACKNAVKTDAPASALWDIMRCWEKECPVKRERLSETSPAFRILSVEPRLQANFTIREDANPSSRQRGLKRFQANPEANWGPRPRARPGGKAADEAMEERRRLLQNKRKEPPEDVAQRAARLKTFPCKRFKEGTCQRGDQCCYSHSPPTPRVSADAAPDCPETSNQTPPGPGAAAGPGID
B5: SNPC4 (protein, UniProt Q5SXM2 1-1469)
chain: MDVDAEREKITQEIKELERILDPGSSGSHVEISESSLESDSEADSLPSEDLDPADPPISEEERWGEASNDEDDPKDKTLPEDPETCLQLNMVYQEVIQEKLAEANLLLAQNREQQEELMRDLAGSKGTKVKDGKSLPPSTYMGHFMKPYFKDKVTGVGPPANEDTREKAAQGIKAFEELLVTKWKNWEKALLRKSVVSDRLQRLLQPKLLKLEYLHQKQSKVSSELERQALEKQGREAEKEIQDINQLPEEALLGNRLDSHDWEKISNINFEGSRSAEEIRKFWQNSEHPSINKQEWSREEEERLQAIAAAHGHLEWQKIAEELGTSRSAFQCLQKFQQHNKALKRKEWTEEEDRMLTQLVQEMRVGSHIPYRRIVYYMEGRDSMQLIYRWTKSLDPGLKKGYWAPEEDAKLLQAVAKYGEQDWFKIREEVPGRSDAQCRDRYLRRLHFSLKKGRWNLKEEEQLIELIEKYGVGHWAKIASELPHRSGSQCLSKWKIMMGKKQGLRRRRRRARHSVRWSSTSSSGSSSGSSGGSSSSSSSSSEEDEPEQAQAGEGDRALLSPQYMVPDMDLWVPARQSTSQPWRGGAGAWLGGPAASLSPPKGSSASQGGSKEASTTAAAPGEETSPVQVPARAHGPVPRSAQASHSADTRPAGAEKQALEGGRRLLTVPVETVLRVLRANTAARSCTQKEQLRQPPLPTSSPGVSSGDSVARSHVQWLRHRATQSGQRRWRHALHRRLLNRRLLLAVTPWVGDVVVPCTQASQRPAVVQTQADGLREQLQQARLASTPVFTLFTQLFHIDTAGCLEVVRERKALPPRLPQAGARDPPVHLLQASSSAQSTPGHLFPNVPAQEASKSASHKGSRRLASSRVERTLPQASLLASTGPRPKPKTVSELLQEKRLQEARAREATRGPVVLPSQLLVSSSVILQPPLPHTPHGRPAPGPTVLNVPLSGPGAPAAAKPGTSGSWQEAGTSAKDKRLSTMQALPLAPVFSEAEGTAPAASQAPALGPGQISVSCPESGLGQSQAPAASRKQGLPEAPPFLPAAPSPTPLPVQPLSLTHIGGPHVATSVPLPVTWVLTAQGLLPVPVPAVVSLPRPAGTPGPAGLLATLLPPLTETRAAQGPRAPALSSSWQPPANMNREPEPSCRTDTPAPPTHALSQSPAEADGSVAFVPGEAQVAREIPEPRTSSHADPPEAEPPWSGRLPAFGGVIPATEPRGTPGSPSGTQEPRGPLGLEKLPLRQPGPEKGALDLEKPPLPQPGPEKGALDLGLLSQEGEAATQQWLGGQRGVRVPLLGSRLPYQPPALCSLRALSGLLLHKKALEHKATSLVVGGEAERPAGALQASLGLVRGQLQDNPAYLLLRARFLAAFTLPALLATLAPQGVRTTLSVPSRVGSESEDEDLLSELELADRDGQPGCTTATCPIQGAPDSGKCSASSCLDTSNDPDDLDVLRTRHARHTRKRRRLV
B6: SAP18 (protein, UniProt O00422 1-153)
chain: MAVESRVTQEEIKKEPEKPIDREKTCPLLLRVFTTNNGRHHRMDEFSRGNVPSSELQIYTWMDATLKELTSLVKEVYPEARKKGTHFNFAIVFTDVKRPGYRVKEIGSTMSGRKGTDDSMTLQSQKFQIGDYLDIAITPPNRAPPPSGRMRPY
B7: SARNP (protein, UniProt P82979 1-210)
chain: MATETVELHKLKLAELKQECLARGLETKGIKQDLIHRLQAYLEEHAEEEANEEDVLGDETEEEETKPIELPVKEEEPPEKTVDVAAEKKVVKITSEIPQTERMQKRAERFNVPVSLESKKAARAARFGISSVPTKGLSSDNKPMVNLDKLKERAQRFGLNVSSISRKSEDDEKLKKRKERFGIVTSSAGTGTTEDTEAKKRKRAERFGIA
B8: RNPS1 (protein, UniProt Q15287 1-305)
chain: MDLSGVKKKSLLGVKENNKKSSTRAPSPTKRKDRSDEKSKDRSKDKGATKESSEKDRGRDKTRKRRSASSGSSSTRSRSSSTSSSGSSTSTGSSSGSSSSSASSRSGSSSTSRSSSSSSSSGSPSPSRRRHDNRRRSRSKSKPPKRDEKERKRRSPSPKPTKVHIGRLTRNVTKDHIMEIFSTYGKIKMIDMPVERMHPHLSKGYAYVEFENPDEAEKALKHMDGGQIDGQEITATAVLAPWPRPPPRRFSPPRRMLPPPPMWRRSPPRMRRRSRSPRRRSPVRRRSRSPGRRRHRSRSSSNSSR
B9: THO subunit THOC3 (protein, UniProt Q96J01 1-351)
chain: MAVPAAAMGPSALGQSGPGSMAPWCSVSSGPSRYVLGMQELFRGHSKTREFLAHSAKVHSVAWSCDGRRLASGSFDKTASVFLLEKDRLVKENNYRGHGDSVDQLCWHPSNPDLFVTASGDKTIRIWDVRTTKCIATVNTKGENINICWSPDGQTIAVGNKDDVVTFIDAKTHRSKAEEQFKFEVNEISWNNDNNMFFLTNGNGCINILSYPELKPVQSINAHPSNCICIKFDPMGKYFATGSADALVSLWDVDELVCVRCFSRLDWPVRTLSFSHDGKMLASASEDHFIDIAEVETGDKLWEVQCESPTFTVAWHPKRPLLAFACDDKDGKYDSSREAGTVKLFGLPNDS
B10: POLDIP3 (protein, UniProt Q9BY77 1-421)
chain: MADISLDELIRKRGAAAKGRLNARPGVGGVRSRVGIQQGLLSQSTRTATFQQRFDARQKIGLSDARLKLGVKDAREKLLQKDARFRIKGKVQDAREMLNSRKQQTTVPQKPRQVADAREKISLKRSSPAAFINPPIGTVTPALKLTKTIQVPQQKAMAPLHPHPAGMRINVVNNHQAKQNLYDLDEDDDGIASVPTKQMKFAASGGFLHHMAGLSSSKLSMSKALPLTKVVQNDAYTAPALPSSIRTKALTNMSRTLVNKEEPPKELPAAEPVLSPLEGTKMTVNNLHPRVTEEDIVELFCVCGALKRARLVHPGVAEVVFVKKDDAITAYKKYNNRCLDGQPMKCNLHMNGNVITSDQPILLRLSDSPSMKKESELPRRVNSASSSNPPAEVDPDTILKALFKSSGASVTTQPTEFKIKL

The first experiment concerns the target FTO, N-terminal BirA* fusion (human) (UniProt Q9C0B1). The experiment is described as follows: proximity labelling; BioID: BirA*-fused bait induced with 200 ng/ml dox in stable 293T cells, 50 μM biotin for 24 h, streptavidin bead purification of biotinylated proteins, LC-MS/MS; hits filtered by Limma (>4-fold, adjusted P < 0.01) and SAINT (score >0.74) against BirA* and NLS-BirA* controls.
For the molecule B1, the binding result is given as “binds”.
The same measure, in the same setting: next, B2: “binds”; B3: “no binding”; B4: “binds”.
On the same count and under the same terms, then B5, with “binds”.

The next experiment addresses ALKBH5, BirA* fusion (human) (UniProt Q6P6C2). The experiment is described as above.
Take B6: the binding result is “binds”.
Take B7: the binding entry is “binds”.
Still for that read-out and setting: next, B8: “binds”; B9: “binds”.
Take B10: the binding entry is reported as “binds”.
